Reference: US20120045437A1 (BOARD OF REGENTS OF THE UNIVERSITY OF OKLAHOMA, published 2012)
Results are given in words; binding and its absence hold for the method and conditions named. Some results given as binding are weak or reduced against the parent protein; the word gives no strength.

Protein sequences, listed by entry. Tags and fused reporters are not part of them. Lines headed by an entry give the natural chain unless they say otherwise; changes in a name come on top.
UniProt O75581: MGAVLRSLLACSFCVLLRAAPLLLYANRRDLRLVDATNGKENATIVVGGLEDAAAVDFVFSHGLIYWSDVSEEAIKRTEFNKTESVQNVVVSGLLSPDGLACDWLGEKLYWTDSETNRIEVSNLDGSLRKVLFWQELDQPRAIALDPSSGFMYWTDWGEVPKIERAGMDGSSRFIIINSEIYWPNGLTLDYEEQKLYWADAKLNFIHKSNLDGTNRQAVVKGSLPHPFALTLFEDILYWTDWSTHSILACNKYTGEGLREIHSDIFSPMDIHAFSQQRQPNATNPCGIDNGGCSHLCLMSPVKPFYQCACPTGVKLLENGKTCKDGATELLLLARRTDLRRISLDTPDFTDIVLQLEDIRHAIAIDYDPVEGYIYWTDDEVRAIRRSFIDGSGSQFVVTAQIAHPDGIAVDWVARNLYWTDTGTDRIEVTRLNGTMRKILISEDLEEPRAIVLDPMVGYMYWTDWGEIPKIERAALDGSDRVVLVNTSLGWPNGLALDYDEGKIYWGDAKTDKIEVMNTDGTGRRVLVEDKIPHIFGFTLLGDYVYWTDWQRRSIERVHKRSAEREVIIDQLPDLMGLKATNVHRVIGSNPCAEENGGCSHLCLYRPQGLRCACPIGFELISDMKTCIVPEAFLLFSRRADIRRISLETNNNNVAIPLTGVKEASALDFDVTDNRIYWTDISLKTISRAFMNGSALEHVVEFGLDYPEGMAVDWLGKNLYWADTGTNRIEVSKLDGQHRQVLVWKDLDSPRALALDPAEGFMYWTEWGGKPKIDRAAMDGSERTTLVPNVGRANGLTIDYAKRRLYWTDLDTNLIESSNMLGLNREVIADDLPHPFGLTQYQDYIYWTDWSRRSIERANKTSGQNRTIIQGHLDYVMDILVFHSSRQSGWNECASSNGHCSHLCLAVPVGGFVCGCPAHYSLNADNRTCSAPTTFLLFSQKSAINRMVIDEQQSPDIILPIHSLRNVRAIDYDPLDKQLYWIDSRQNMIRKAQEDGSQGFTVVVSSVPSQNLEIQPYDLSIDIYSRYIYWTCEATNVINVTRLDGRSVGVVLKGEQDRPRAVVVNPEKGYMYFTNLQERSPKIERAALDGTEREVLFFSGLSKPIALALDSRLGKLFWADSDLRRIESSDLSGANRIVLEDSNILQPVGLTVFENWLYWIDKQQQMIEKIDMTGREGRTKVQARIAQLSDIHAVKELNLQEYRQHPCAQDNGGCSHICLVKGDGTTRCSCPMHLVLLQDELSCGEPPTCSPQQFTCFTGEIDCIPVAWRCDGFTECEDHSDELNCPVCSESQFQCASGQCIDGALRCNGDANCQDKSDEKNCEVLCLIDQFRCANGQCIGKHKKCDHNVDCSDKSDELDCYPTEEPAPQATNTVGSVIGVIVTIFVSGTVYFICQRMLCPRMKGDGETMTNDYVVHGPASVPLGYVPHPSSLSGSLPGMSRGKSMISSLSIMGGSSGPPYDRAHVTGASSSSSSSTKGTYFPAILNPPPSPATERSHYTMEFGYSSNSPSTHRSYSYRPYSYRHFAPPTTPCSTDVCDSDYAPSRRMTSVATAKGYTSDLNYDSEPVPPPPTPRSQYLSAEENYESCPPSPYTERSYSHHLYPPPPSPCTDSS

Columns and labels:
LRP6E1E2-His (human) [1] = target: LRP6E1E2-His (human) (UniProt O75581); experiment: pre-absorption of the antibody with 10 µg/ml purified LRP6E1E2-His before staining of retinal sections
[2] = target: endogenous rat LRP6 (rat); experiment: immunostaining of rat retinal cryosections with FITC-labelled antibody
[3] = target: LRP6N-Myc (ectodomain of LRP6) (Homo sapiens (Human)) (UniProt O75581); experiment: Western blot, conditioned medium containing LRP6N-Myc
[4] = target: LRP6-Myc (full-length LRP6 expressed in HEK-293T cells) (Homo sapiens (Human)) (UniProt O75581); experiment: Western blot, total lysates of HEK-293T cells transfected with LRP6-Myc
[5] = target: endogenous rat LRP6 (rat); experiment: Western blot, total cell lysates
LRP6E1E2-His (human) [6] = target: LRP6E1E2-His (human) (UniProt O75581); experiment: summary of the Western blot specificity tests
LRP6E1E2-His (human) [7] = target: LRP6E1E2-His (human) (UniProt O75581); experiment: Western blot, purified recombinant LRP6E1E2-His

Measured: binding

B1: Anti-LRP6-1 (antibody, mouse IgG2, V domains shown)
VH: EVQLVESGGGLVQSKGSLKLSCAASGFTFNTYAMNWVRQAPGKGLEWVGRIRSKYNNYVTYYGDSVKDRFTISRDDSQSMLYLQMNNLKTEDTAMYYCVRQGRGSYAMDYWGQGTSVTVSS
VL: NIVMTQSPKSMSMSVGERVTLSCKASENVGTYVSWYQQKPEQSPKLLIYGASNRYTGVPDRFIGSGSATDFTLTIRSVQAEDLADYHCGQSYSYPTFGAGTKLELKR
notes: also called mAb2F1; 2F1
binds: all assays above
